## Percent effect of library compounds

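Whole-parasite assay of Trypanosoma brucei over 72 hours; the read-out is not stated. Compounds at 10 µM. Direction is inferred from retests: higher values go with stronger inhibition. Values scatter widely below zero; nearly all retest evidence comes from the higher of the two concentrations used. About 2,700 compounds were tested under these conditions; 0.51% (about 14) showed 50% or more at least once.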

Results are given as percent effect. The controls that fix the scale are not given in the record; negative values are as filed. The compounds are a random part of those screened.

Compound,percent effect
Cc1cc(NC(=O)CN2CCCC2c2noc(C)n2)n(C(C)(C)C)n1 (stereo not given),-50.73%
O=C(CN1CCOC(Cn2cccn2)C1)NCCc1cccs1 (stereo not given),-68.65%
CCc1cccc(N2CCC(NC(=O)C3CCCO3)CC2)c1 (stereo not given),-38.36%
CCc1nc(C2CCCN(C(=O)c3ccc4[nH]cnc4c3)C2)no1 (stereo not given),-94.54%
Cc1cc(C)n(CC2CN(Cc3nnc(C)o3)CCO2)n1 (stereo not given),-67.91%
CC(C)c1nc(C2CCCN(C(=O)c3ccc4c(c3)OCO4)C2)no1 (stereo not given),-22.9%
Cc1nc(C)n(CC2CCCN(CC(=O)Nc3nnc(C)s3)C2)n1 (stereo not given),-18.81%
COc1cc(CNC(=O)Nc2nnc(C(C)C)s2)ccn1,-20.48%
CCn1cc(CN2CCCN(C(=O)c3cccc(C#N)c3)CC2)cn1,-84.62%
Cc1nn(C)c(N(C)C)c1CNCc1ccnc(N2CCCCC2)c1,-26.93%
Cc1cc(C)n(CC2CCCN2C(=O)c2nccc3ccccc23)n1 (stereo not given),-38.66%
Cc1cnn(CC(=O)N2CCCN(c3nc(C)cs3)CC2)c1,-4.515%
Cc1nnc2n1CCN(C(=O)c1cc(Br)c[nH]1)C2,-47.02%
CC(NC(=O)CCC1CCCCC1)c1nnc2n1CCC2 (stereo not given),-28.92%

The first 2 entries again:

Compound	percent effect
Cc1cc(NC(=O)CN2CCCC2c2noc(C)n2)n(C(C)(C)C)n1 (stereo not given)	-50.73%
O=C(CN1CCOC(Cn2cccn2)C1)NCCc1cccs1 (stereo not given)	-68.65%

From ChEMBL document CHEMBL3988442, “University of Dundee, Small-Polar-MMV Screening Library” (2021).